Earlier results as cited in patent publication US6391338B1, “System for rendering substantially non-dissoluble bio-affecting agents bio-available” (Biovail Technologies Ltd., priority 1995, dated 2002).

Settings: water; cited from earlier work

SMILES: CCC(C)n1ncn(-c2ccc(N3CCN(c4ccc(OCC5COC(Cn6cncn6)(c6ccc(Cl)cc6Cl)O5)cc4)CC3)cc2)c1=O (stereo not shown) [itraconazole]
- aqueous solubility: less than 0.0001 g/mL
